# Test results: article PMC7819943, “Rice protein-binding microarrays: a tool to detect cis-acting elements near promoter regions in rice”
# Sequences of proteins named here, by UniProt entry; tags and fusion partners are left off.
# UniProt Q0JBA9, entry or part of it: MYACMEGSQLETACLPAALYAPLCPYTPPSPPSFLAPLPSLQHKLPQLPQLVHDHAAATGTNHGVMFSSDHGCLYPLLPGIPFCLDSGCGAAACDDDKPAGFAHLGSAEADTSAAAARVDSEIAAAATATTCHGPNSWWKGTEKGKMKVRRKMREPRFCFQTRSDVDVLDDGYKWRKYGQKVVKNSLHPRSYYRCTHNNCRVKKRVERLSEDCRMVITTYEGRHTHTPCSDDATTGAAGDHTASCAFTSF
# The list shows a part of the results.
# Biological target: OsWRKY34 (Oryza sativa, UniProt Q0JBA9 1-250)
# Assay: protein-binding microarray (RPBM); PBS, 2% BSA, 51.3 ng/ul salmon testes DNA, 50 uM zinc acetate, 200 nM TF, 25 C, 1 h; high values mean tight binding
# Conditions: protein: recombinant; tags: N-terminal polyhistidine and DsRed monomer fusion (pET32a); label: CyDye5-dUTP incorporated in the synthesized complementary strand; 3' TTTTT single-stranded linker to array surface; dsDNA, one strand shown
# Procedure, shortened: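 Transcription factors were each fused at the N-terminus to a polyhistidine tag plus DsRed and expressed in E. coli BL21-CodonPlus before Ni–NTA purification. Binding to a double-stranded custom Agilent array was carried out with 200 nM protein at 25 °C for 1 h in PBS, 2% BSA, salmon testes DNA and 50 µM zinc acetate. The binding signal is per-feature fluorescence intensity, in arbitrary units, on an Axon 4000B scanner.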
row,Sequence,binding signal
1,CACCGGTTCTTCGCCTTCGTCACCGTCGCCGGCGGCGCCACGGAGTCACCTAGTGCAG,8450 fluorescence intensity (a.u.)
2,CCTTATTTTTCAGCGTGTCAACCTTGACTGGTATTTTTTTCGGAGTCACCTAGTGCAG,8050 fluorescence intensity (a.u.)
3,ATTATACTTCGACGGTTTTTTTTATAGATACTCCATTTCCCGGAGTCACCTAGTGCAG,8410 fluorescence intensity (a.u.)
4,TAGAATCCACACTCGTAACATTCTGTTTTTTTATTTTTCCCGGAGTCACCTAGTGCAG,8570 fluorescence intensity (a.u.)
5,CAAAGCGAAGGCTCCATTCATTCACTCCATCTCCTCGCGTCGGAGTCACCTAGTGCAG,8900 fluorescence intensity (a.u.)
6,GGCCTCTCGTGCACCACCGGGTTCGCGTTGATCATCCCCACGGAGTCACCTAGTGCAG,8120 fluorescence intensity (a.u.)
7,GCAACACCACCCTCATCGGACCTGTGCCAACCGAGCTCGACGGAGTCACCTAGTGCAG,8100 fluorescence intensity (a.u.)
8,TAAACTCGTCTTATCCGCATGATTGTTGACTATAGTATGTCGGAGTCACCTAGTGCAG,9300 fluorescence intensity (a.u.)
9,ATTGTCTCCCTCGACTTGCCCTGTTGTCCACGTTGACTCGCGGAGTCACCTAGTGCAG,9160 fluorescence intensity (a.u.)
10,GGTAGTTGGGGTTGTCGGCGACGTGGTAGCTGCCGACGGTCGGAGTCACCTAGTGCAG,9580 fluorescence intensity (a.u.)
11,AACACTTGAACGATCAGCCTCCACATCTTCTTACCCTATTCGGAGTCACCTAGTGCAG,8200 fluorescence intensity (a.u.)
12,AGATTGACAGACACATTTGGAAGTGTTTCCCTGGCCTCACCGGAGTCACCTAGTGCAG,8420 fluorescence intensity (a.u.)
13,TTTTCTGTCATATCGTTCCAATTTGAATCAAACTTCCAATCGGAGTCACCTAGTGCAG,9830 fluorescence intensity (a.u.)
14,CGCCAGATATTTCCCGCGCGCCGCGTCGCGCCGCGCAACTCGGAGTCACCTAGTGCAG,8310 fluorescence intensity (a.u.)
15,ATACGTGCCAATCCAAACATTTCTTATTGAGTCGCCCATTCGGAGTCACCTAGTGCAG,8620 fluorescence intensity (a.u.)
16,CACTTTAAAACCCATGTGTATCTCGCGCCAAACTCGCTAGCGGAGTCACCTAGTGCAG,8200 fluorescence intensity (a.u.)
17,GGTCCGCGGCTGCTACTACTACCGCCTTTTGTTTTTCTCTCGGAGTCACCTAGTGCAG,9350 fluorescence intensity (a.u.)
18,GAACTTCCCTCACATTTCTGCCTTGAATTTGCATGTTTGACGGAGTCACCTAGTGCAG,9550 fluorescence intensity (a.u.)
19,ATAATTTCTCAGACGCCCTCCGCTGATCTCCAGTTCTCTACGGAGTCACCTAGTGCAG,8820 fluorescence intensity (a.u.)
20,AAGTCATTCTAGCATTTCACACATTCATTTTGATGTTAATCGGAGTCACCTAGTGCAG,9830 fluorescence intensity (a.u.)
21,CTCATTGCCTCTTGCTGCCCCTGCTTCATTCTAATCCAATCGGAGTCACCTAGTGCAG,9480 fluorescence intensity (a.u.)
22,CCTGCTTCCCGGCCTCTTGTTCTGCTTGCTTGCCTGCCACCGGAGTCACCTAGTGCAG,10400 fluorescence intensity (a.u.)
23,CCGCCGCCGCCTCTGCTCCATCGATTCCCGGGTGCACTCGCGGAGTCACCTAGTGCAG,8420 fluorescence intensity (a.u.)
24,TCCACGCGCTCTGCTGCCTCGTCTCGCTCTTCCTCGGGTTCGGAGTCACCTAGTGCAG,9910 fluorescence intensity (a.u.)
25,GTCTTCTCCGCCGCCGCCGCCGCCGCCGCCGTCCGTCCGTCGGAGTCACCTAGTGCAG,9360 fluorescence intensity (a.u.)
26,TCCTCCTCCTTGCCCTCTAGCTACTAGCTCACACTGTCACCGGAGTCACCTAGTGCAG,8130 fluorescence intensity (a.u.)
27,GGAGTTTGAAAGGGTGGGAGAGAGCAGATAAGGGATAATTCGGAGTCACCTAGTGCAG,8480 fluorescence intensity (a.u.)

# Three records drawn at random from the list so far, as already listed:
row,Sequence,binding signal
24,TCCACGCGCTCTGCTGCCTCGTCTCGCTCTTCCTCGGGTTCGGAGTCACCTAGTGCAG,9910 fluorescence intensity (a.u.)
16,CACTTTAAAACCCATGTGTATCTCGCGCCAAACTCGCTAGCGGAGTCACCTAGTGCAG,8200 fluorescence intensity (a.u.)
18,GAACTTCCCTCACATTTCTGCCTTGAATTTGCATGTTTGACGGAGTCACCTAGTGCAG,9550 fluorescence intensity (a.u.)

# Carrying on.

row,Sequence,binding signal
1,TAAATCTTTCTCAACTTTTCCTTAATTTTCTCGTATTTTTCGGAGTCACCTAGTGCAG,8500 fluorescence intensity (a.u.)
2,AAGTTTTTGACCTACAGTAACATCATTTTTCGCTTTCTATCGGAGTCACCTAGTGCAG,9180 fluorescence intensity (a.u.)
3,ACCATCCGATTTCCGCGCCCGTGATTTCACACGTCTCGCGCGGAGTCACCTAGTGCAG,9200 fluorescence intensity (a.u.)
4,ATACGACCATGAAGCCTGCGTTCTTCCTCTTGCGCCTCATCGGAGTCACCTAGTGCAG,8250 fluorescence intensity (a.u.)
5,CCTCTCTGACCCTATTTCGTTTAGGTGAGTTCACGGTGTTCGGAGTCACCTAGTGCAG,10700 fluorescence intensity (a.u.)
6,AGGCCATAGAATATACTAACAGACTGCCTATGTTTTGATTCGGAGTCACCTAGTGCAG,8650 fluorescence intensity (a.u.)
7,TTTTCCGATCATTTCCGAGTGATTTCATCCCTACCTGCATCGGAGTCACCTAGTGCAG,10800 fluorescence intensity (a.u.)
8,CCCTTTTTCTTTCACATTTTACGGTGCGGTCTTGATTCGTCGGAGTCACCTAGTGCAG,9200 fluorescence intensity (a.u.)
9,CCCACCACCAACTTACCCAGGAAACACCCGTCCGATTCACCGGAGTCACCTAGTGCAG,8590 fluorescence intensity (a.u.)
10,AGATTTTCTGTCTTTTTGATCCGTCTTTAGTGGAGCTTTTCGGAGTCACCTAGTGCAG,8420 fluorescence intensity (a.u.)
11,GCCTGTTCACTTTGATGCTATTTTCAACCTTACCAAATTTCGGAGTCACCTAGTGCAG,12500 fluorescence intensity (a.u.)
12,ACGCCGTTGACTTTTTTAAACATGTTTGACTGTTCGTCTTCGGAGTCACCTAGTGCAG,38200 fluorescence intensity (a.u.)
13,CTTTAACCAACGTATTCCTCTCTATCTTTTTTTTCTCCTCCGGAGTCACCTAGTGCAG,8260 fluorescence intensity (a.u.)
14,GTACTGGCTTGGCTGGGTCGGGCTCGGGCTGGGCCATGAACGGAGTCACCTAGTGCAG,8340 fluorescence intensity (a.u.)
15,ACTACTCATAGCCAGTACTGTTATTACTGTACATGTATAACGGAGTCACCTAGTGCAG,8390 fluorescence intensity (a.u.)
16,CATACACCTTCCGTCCTAAATTATACGGCGCCTATTTTTTCGGAGTCACCTAGTGCAG,8650 fluorescence intensity (a.u.)
17,GAGGAGAGAGAGAGAGAGTGGTGGTGGTGGTGGTGAGATGCGGAGTCACCTAGTGCAG,8460 fluorescence intensity (a.u.)
18,TACTCACGCACGAATTCCTAGGCCATATACTAGTACACATCGGAGTCACCTAGTGCAG,10900 fluorescence intensity (a.u.)
19,GGATGGGTGAGGGGATCGGCGAAGGCGGCGGGGTGGCGAACGGAGTCACCTAGTGCAG,12400 fluorescence intensity (a.u.)
20,ATGGATGTGGAGACTTGGGTCATATGTTTCTTTTCTATTTCGGAGTCACCTAGTGCAG,8730 fluorescence intensity (a.u.)
21,CCTTCCCTTTCTTTATTCTGAAGCTTTTATCTTCTTCTCACGGAGTCACCTAGTGCAG,9700 fluorescence intensity (a.u.)
22,TCCTTTCACGTCTAGCTCTCAACCTGCAGGATGTAACGACCGGAGTCACCTAGTGCAG,8800 fluorescence intensity (a.u.)
23,TGTTGCCGCAGACCTTGACGCCCTCGTCGGCGGCGCGGACCGGAGTCACCTAGTGCAG,8350 fluorescence intensity (a.u.)
24,TTACACGCCTAATCATCGAAAACCTAATCTTATGCTTTCTCGGAGTCACCTAGTGCAG,8790 fluorescence intensity (a.u.)
25,CTCTGCTACCTTTCGGCAACCTCCACCATTAAGGCCATCGCGGAGTCACCTAGTGCAG,9280 fluorescence intensity (a.u.)
26,TACCAGCAGATTATTACGGACGCATTTTTCTAACCGTTGACGGAGTCACCTAGTGCAG,10200 fluorescence intensity (a.u.)
27,CACGCCACGCCACGCCTCACCTCACCACCACCAGGCACCACGGAGTCACCTAGTGCAG,8860 fluorescence intensity (a.u.)
